According to patent US20180237502A1:
No constants are given. Whether binding was seen depends on the method and setting. Some results given as binding are weak or reduced against the parent protein; the word gives no strength.

By UniProt entry, the sequences of proteins in these tests, tags left out. Residues count along the entry.
UniProt Q05320, residues 33-637: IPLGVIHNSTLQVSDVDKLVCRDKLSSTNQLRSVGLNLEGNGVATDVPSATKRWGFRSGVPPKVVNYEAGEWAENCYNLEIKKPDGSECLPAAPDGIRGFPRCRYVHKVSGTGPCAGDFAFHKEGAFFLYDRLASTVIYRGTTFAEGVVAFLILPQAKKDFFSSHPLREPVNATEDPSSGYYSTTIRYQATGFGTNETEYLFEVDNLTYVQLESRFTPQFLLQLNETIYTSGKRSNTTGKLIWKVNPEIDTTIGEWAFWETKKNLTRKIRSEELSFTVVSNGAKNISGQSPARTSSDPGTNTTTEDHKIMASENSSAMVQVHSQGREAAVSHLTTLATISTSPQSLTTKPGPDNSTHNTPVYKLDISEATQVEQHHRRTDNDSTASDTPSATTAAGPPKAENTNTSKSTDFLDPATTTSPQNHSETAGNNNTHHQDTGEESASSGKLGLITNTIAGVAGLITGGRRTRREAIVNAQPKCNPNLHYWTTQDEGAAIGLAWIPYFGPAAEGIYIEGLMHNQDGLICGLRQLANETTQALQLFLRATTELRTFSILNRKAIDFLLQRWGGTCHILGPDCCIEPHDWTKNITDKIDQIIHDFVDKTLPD
UniProt Q66799, residues 34-638: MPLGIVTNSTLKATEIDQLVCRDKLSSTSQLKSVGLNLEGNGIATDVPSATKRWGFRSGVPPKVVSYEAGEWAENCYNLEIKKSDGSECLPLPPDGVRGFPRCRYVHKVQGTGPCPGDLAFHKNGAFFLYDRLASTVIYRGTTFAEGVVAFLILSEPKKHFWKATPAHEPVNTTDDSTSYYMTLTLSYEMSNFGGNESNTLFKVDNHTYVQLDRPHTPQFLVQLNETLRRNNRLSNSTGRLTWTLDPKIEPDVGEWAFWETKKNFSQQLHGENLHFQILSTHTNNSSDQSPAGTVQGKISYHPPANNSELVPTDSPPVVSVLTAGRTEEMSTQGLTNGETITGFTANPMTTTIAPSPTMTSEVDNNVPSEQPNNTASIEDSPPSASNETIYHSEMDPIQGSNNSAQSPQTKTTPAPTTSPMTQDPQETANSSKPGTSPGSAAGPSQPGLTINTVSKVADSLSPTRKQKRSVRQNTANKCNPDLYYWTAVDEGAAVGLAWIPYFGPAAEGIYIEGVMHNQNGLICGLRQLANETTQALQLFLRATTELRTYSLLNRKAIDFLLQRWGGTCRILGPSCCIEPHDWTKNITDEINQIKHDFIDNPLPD

Legend:
[1] = target: EBOV glycoprotein (purified EBOV GP) (Ebola virus (EBOV)) (UniProt Q05320); experiment: Western blot, denatured glycoprotein (data not shown)
[2] = target: RESTV glycoprotein (Reston virus (RESTV)) (UniProt Q66799); experiment: as above

Binder | binding [1] | binding [2]
macaque monoclonal antibody FVM09 (antibody, V domains shown) VH: EVQLVQSGAEVKRPGESLTISCKTSGYSFTDSWVAWVRQMPGKGLEWLGSIYPGDSETKYNPSFQGHVTISADKSVTTTYLKWSSLKASDTATYYCVKGSETWGQGVLVTVSS VL: QLVLTQPASLSASPGASASLTCTFSGGINVAGYNILWYQQKAGSPPRYLLRYKSDSTKDQGSGVPSRFSGSKDASANTGILRISGLQSEDEADYYCAIGHSSGWIFGGGTRLTVL | binds | binds
macaque monoclonal antibody FVM11 (antibody, V domains shown) VH: EVQLVQSGAEVKRPGESLTISCKTSGYSFTDSWVAWVRQMPGKGLEWLGSIYPGDSETKYNPSFQGHVTISADKSVTTTYLKWSSLKASDTATYYCVKGSETWGQGVLVTVSS VL: NFMLTQPASLSASPGASASLTCTFSGGINVAGYNILWYQQKAGSPPRYLLRYKSDSTKDQGSGVPSRFSGSKDASANTGILRISGLQSEDEADYYCAIGHSSGWIFGGGTRLTVL | binds | binds
